The list shows a part of the results. The main result of the screen is listed elsewhere. These columns were measured beside it and carry no call. The list favours compounds with an active or inconclusive main result. Potencies come from curve fits of mixed quality, noted in brackets.
Assay: qHTS Assay for Lipid Storage Modulators in Drosophila S3 Cells;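 for cell number change: cells counted by Cell Tracker Red CMTPX staining in the red channel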
Conditions: BODIPY lipid droplet fluorescence, 18-24 h; for cell number change: measured here: cell count max response, cells fed with added oleic acid
Method in brief: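 Drosophila S3 cells loaded with oleic acid (400 uM, as added) and compounds at several concentrations; lipid droplets imaged by 488-nm laser-scanning cytometry, 500–530 nm intensity and object ratio to cell channel. Percent activity normalized to 20 uM Triacsin C.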

[1] = measured here: lipid fluorescence (Fed channel) AC50, cells fed with added oleic acid
[2] = measured here: cell number channel AC50, cells fed with added oleic acid

| SMILES | cell number change | AC50 [1] | AC50 [2] |
| --- | --- | --- | --- |
| CS(=O)(=O)N1CCc2cc(C(=O)O)ccc21 | -1.6% | 146 nM [rising, full curve, poor fit] |  |
| O=C(c1cccs1)c1cn(CC(=O)N2CCc3ccccc3C2)c2ccccc12 | -20.2% |  |  |
| CCOC(=O)C1CCN(C(=O)c2cc3cc(Br)ccc3oc2=O)CC1 |  | 184 nM [falling, full curve] | 291 nM [falling, full curve, poor fit] |
| COc1ccc(CNC(=O)c2csc(Cc3ccc(OC)cc3)n2)cc1 | 17.5% | 29100 nM [rising, single point] |  |
| COCCn1c(=S)[nH]c2cc(OC)c(OC)cc2c1=O | 8.36% | 73.1 nM [rising, single point] |  |
| Fc1ccc(Cn2c(-c3cscn3)nc3ccccc32)c(Cl)c1 |  | 1640 nM [rising, partial curve] | 1840 nM [rising, partial curve] |
| CCOC(=O)c1c(NC(=O)CC)sc2c1CCN(Cc1ccccc1)C2 | -23.6% | 7310 nM [falling, partial curve, poor fit] |  |
| O=C(O)c1cc(S(=O)(=O)Nc2ccc3c(c2)OCCO3)c(Cl)cc1Cl | -35% | 23100 nM [falling, partial curve, poor fit] | 517 nM [falling, full curve] |
| CC(C)CC(=O)Nc1nnn(C)n1 | 6.27% |  |  |
| C/C(=N\NS(=O)(=O)c1ccc([N+](=O)[O-])cc1)c1ccc2c(c1)OCO2 | 27.2% |  |  |
| Cc1cccc(N(CC(=O)N2CCOCC2)S(C)(=O)=O)c1 | 14.7% | 18400 nM [rising, single point] |  |
| Cc1ccc(NC(=O)c2ccco2)cc1C | 23.8% | 731 nM [rising, full curve] | 517 nM [rising, full curve] |
| CCN(CC)C(=O)c1ccc(N)cc1 | 3.91% |  |  |
| CSc1ccc(CN(C)C(=O)c2cccc(S(=O)(=O)N3CCN(Cc4ccccc4)CC3)c2)cc1 | 16.4% | 18400 nM [rising, single point] | 3260 nM [rising, single point] |
| Cc1ccc(S(=O)(=O)N2CCN(c3ccnc4cc(Cl)ccc34)CC2)cc1 | -36.7% | 29100 nM [falling, single point] | 32600 nM [falling, single point] |
| CCOc1ccc(C(=O)NCC(=O)Nc2ccc(N3CCOCC3)cc2)cc1OCC | 92.2% |  |  |
| COc1ccc(C(=O)Oc2cc(C(=S)N3CCOCC3)ccc2OC)cc1 | -11.4% | 29100 nM [rising, single point] |  |

Reprinted at random: 2 compounds from above, in no set order.

| SMILES | cell number change | AC50 [1] | AC50 [2] |
| --- | --- | --- | --- |
| CS(=O)(=O)N1CCc2cc(C(=O)O)ccc21 | -1.6% | 146 nM [rising, full curve, poor fit] |  |
| C/C(=N\NS(=O)(=O)c1ccc([N+](=O)[O-])cc1)c1ccc2c(c1)OCO2 | 27.2% |  |  |

Reference: PubChem BioAssay AID2685 (National Center for Advancing Translational Sciences (NCATS), 2010)
